Laboratory results reported in patent US20230029372A1, “THERAPEUTIC COMPOSITIONS AND METHODS FOR PREVENTION AND TREATMENT OF DIASTOLIC DYSFUNCTION” (AMBETEX PTY LTD, priority 2019, published 2023).

Tested on: Male C57BL6 mice
Assay: Aβ42 administration study: plasma Aβ42, body measures, GTT with glucose tracers, cardiac TAG, gene expression
Format: in vivo
Settings: 1 μg/day i.p., five weeks

Aβ42: Lyophilised recombinant Aβ42 (Millipore)
no change: body composition | body weight | food intake
